Here are results for one substance from article PMC4932183.

Protein sequences, listed by entry. Tags and fused reporters are not part of them. Residues count along the entry.
UniProt P19883, residues 30-317: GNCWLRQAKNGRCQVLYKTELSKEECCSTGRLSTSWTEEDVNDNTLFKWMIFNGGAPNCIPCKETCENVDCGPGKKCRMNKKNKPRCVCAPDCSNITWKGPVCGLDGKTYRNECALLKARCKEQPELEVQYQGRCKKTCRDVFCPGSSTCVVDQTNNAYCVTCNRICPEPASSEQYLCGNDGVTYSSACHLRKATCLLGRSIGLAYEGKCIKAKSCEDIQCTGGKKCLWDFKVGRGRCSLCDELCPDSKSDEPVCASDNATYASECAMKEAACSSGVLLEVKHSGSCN
UniProt P08476, residues 311-426: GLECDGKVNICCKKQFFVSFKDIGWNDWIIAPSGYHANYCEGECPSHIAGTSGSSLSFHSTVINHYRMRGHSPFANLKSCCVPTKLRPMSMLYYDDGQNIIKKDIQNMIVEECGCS

The target in this assay is follistatin-288 (UniProt P19883). Put plainly: co-IP; anti-FST-288 antibody on Protein G magnetic beads captures FST-288; 200 nM pro-activin A complex with 600 nM FST-288; washed with PBS with additional 400 mM NaCl; SDS-PAGE; both purified.

No constants are given. Whether binding was seen depends on the method and setting. Some entries that bind do so weakly or less than the wild type.

For “mature activin A (disulfide-linked dimer of the mature domain of inhibin βA) (from UniProt P08476 311-426) (ligand)”, the binding result is “binds”.
